Data source: PubChem BioAssay AID1259425 (University of Nebraska Medical Center, 2018)
This is a random part of about 14,000 reagents tested. A reagent listed more than once was tested more than once; the source does not tell the runs apart. Reagent sequences are not shown. The record does not give: the time to read-out.

Screen: 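Find knockdowns that reproduce the gene expression pattern seen when KSR1 is lost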 (primary screen)
Cell system: HCT116 human colon cancer cells
Knock-down reagent: siRNA pool against human genes, 50 nM siRNA
Measurement: 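mRNA of six signature genes measured together by branched-DNA assay after 50 nM siRNA pool, blank removed, divided by geometric mean of two housekeeping genes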
Direction: BNIP3L mRNA: higher = more BNIP3L transcript after knockdown; NDRG1 mRNA: higher = more NDRG1 transcript after knockdown; BNIP3 mRNA: higher = more BNIP3 transcript after knockdown; ALDOC mRNA: higher = more ALDOC transcript after knockdown; ACSL5 mRNA: higher = more ACSL5 transcript after knockdown

Target gene | BNIP3L mRNA, set 1 | NDRG1 mRNA, set 1 | BNIP3 mRNA, set 1 | ALDOC mRNA, set 1 | ACSL5 mRNA, set 1
SLC49A3 | 0.222 | 0.191 | 0.305 | 0.082 | 0.251
GTPBP2 (GTP binding protein 2) | 0.139 | 0.175 | 0.327 | 0.0264 | 0.22
TMEM45A (transmembrane protein 45A) | 0.0727 | 0.0958 | 0.319 | 0.0167 | 0.119
RPL28 (ribosomal protein L28) | 0.309 | 0.364 | 0.27 | 0.0464 | 0.233
NECAB1 (N-terminal EF-hand calcium binding protein 1) | 0.105 | 0.0811 | 0.349 | 0.0161 | 0.174
MMP10 (matrix metallopeptidase 10) | 0.0953 | 0.179 | 0.281 | 0.0254 | 0.323
UBE2C (ubiquitin conjugating enzyme E2 C) | 0.0607 | 0.141 | 0.314 | 0.021 | 0.321
CELF6 (CUGBP Elav-like family member 6) | 0.0641 | 0.675 | 0.319 | 0.00962 | 0.237
SOX21 (SRY-box transcription factor 21) | 0.113 | 0.132 | 0.314 | 0.0132 | 0.0965
ZNF202 (zinc finger protein 202) | 0.0981 | 0.705 | 0.333 | 0.0175 | 0.08
TOLLIP (toll interacting protein) | 0.0883 | 0.121 | 0.4 | 0.0428 | 0.181
TOLLIP (toll interacting protein) | 0.0475 | 0.145 | 0.314 | 0.0263 | 0.177
ADD3 (adducin 3) | 0.117 | 0.172 | 0.265 | 0.0297 | 0.0799
DUSP8 (dual specificity phosphatase 8) | 0.122 | 0.209 | 0.279 | 0.0357 | 0.145
RTL6 (retrotransposon Gag like 6) | 0.366 | 0.145 | 0.184 | 0.079 | 0.379
RCOR3 (REST corepressor 3) | 0.0822 | 0.335 | 0.367 | 0.0065 | 0.164
RPL10 (ribosomal protein L10) | 0.503 | 0.604 | 1.73 | 0.106 | 0.468
CXCL2 (C-X-C motif chemokine ligand 2) | 0.146 | 0.127 | 0.369 | 0.0418 | 0.157
MYPN (myopalladin) | 0.12 | 0.0697 | 0.283 | 0.0816 | 0.0711
KLHL25 (kelch like family member 25) | 0.104 | 0.148 | 0.308 | 0.0152 | 0.155

2 successive entries already listed:
Target gene | BNIP3L mRNA, set 1 | NDRG1 mRNA, set 1 | BNIP3 mRNA, set 1 | ALDOC mRNA, set 1 | ACSL5 mRNA, set 1
TOLLIP (toll interacting protein) | 0.0883 | 0.121 | 0.4 | 0.0428 | 0.181
TOLLIP (toll interacting protein) | 0.0475 | 0.145 | 0.314 | 0.0263 | 0.177
